This is one part of the list.
What was measured:
Experiment in all cases: log2 fold change, soluble protein after heating vs DMSO (PISA); higher = thermal stabilisation; K562 cells, 10 uM, 30 min; active = over 0.2 and 3.5 SD of the protein, either way, in both replicates (recomputed)
[1] = compound: CN1CCN(CCOc2cc(OC3CCOCC3)c3c(Nc4c(Cl)ccc5c4OCO5)ncnc3c2)CC1 [saracatinib]
Outline: (§1)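 Values are thermal stability changes relative to control samples and are taken from duplicates. They are stated as log2 fold changes. Before quantification by TMTpro 16plex LC-MS/MS with equalised channel sums, K562 cells at 2×10^6 cells/mL were treated with 10 μM compound for 30 min, heated in aliquots for 3 min across 48°C-58°C, pooled, extracted in PBS with 0.5% NP-40 at 4°C, and centrifuged at 21,000xg for 90 min to give the soluble supernatant.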

Amino acid sequences for entries named in this document (tags omitted). A change or cut given only in a name is not applied to a line headed by its entry.
UniProt Q13428: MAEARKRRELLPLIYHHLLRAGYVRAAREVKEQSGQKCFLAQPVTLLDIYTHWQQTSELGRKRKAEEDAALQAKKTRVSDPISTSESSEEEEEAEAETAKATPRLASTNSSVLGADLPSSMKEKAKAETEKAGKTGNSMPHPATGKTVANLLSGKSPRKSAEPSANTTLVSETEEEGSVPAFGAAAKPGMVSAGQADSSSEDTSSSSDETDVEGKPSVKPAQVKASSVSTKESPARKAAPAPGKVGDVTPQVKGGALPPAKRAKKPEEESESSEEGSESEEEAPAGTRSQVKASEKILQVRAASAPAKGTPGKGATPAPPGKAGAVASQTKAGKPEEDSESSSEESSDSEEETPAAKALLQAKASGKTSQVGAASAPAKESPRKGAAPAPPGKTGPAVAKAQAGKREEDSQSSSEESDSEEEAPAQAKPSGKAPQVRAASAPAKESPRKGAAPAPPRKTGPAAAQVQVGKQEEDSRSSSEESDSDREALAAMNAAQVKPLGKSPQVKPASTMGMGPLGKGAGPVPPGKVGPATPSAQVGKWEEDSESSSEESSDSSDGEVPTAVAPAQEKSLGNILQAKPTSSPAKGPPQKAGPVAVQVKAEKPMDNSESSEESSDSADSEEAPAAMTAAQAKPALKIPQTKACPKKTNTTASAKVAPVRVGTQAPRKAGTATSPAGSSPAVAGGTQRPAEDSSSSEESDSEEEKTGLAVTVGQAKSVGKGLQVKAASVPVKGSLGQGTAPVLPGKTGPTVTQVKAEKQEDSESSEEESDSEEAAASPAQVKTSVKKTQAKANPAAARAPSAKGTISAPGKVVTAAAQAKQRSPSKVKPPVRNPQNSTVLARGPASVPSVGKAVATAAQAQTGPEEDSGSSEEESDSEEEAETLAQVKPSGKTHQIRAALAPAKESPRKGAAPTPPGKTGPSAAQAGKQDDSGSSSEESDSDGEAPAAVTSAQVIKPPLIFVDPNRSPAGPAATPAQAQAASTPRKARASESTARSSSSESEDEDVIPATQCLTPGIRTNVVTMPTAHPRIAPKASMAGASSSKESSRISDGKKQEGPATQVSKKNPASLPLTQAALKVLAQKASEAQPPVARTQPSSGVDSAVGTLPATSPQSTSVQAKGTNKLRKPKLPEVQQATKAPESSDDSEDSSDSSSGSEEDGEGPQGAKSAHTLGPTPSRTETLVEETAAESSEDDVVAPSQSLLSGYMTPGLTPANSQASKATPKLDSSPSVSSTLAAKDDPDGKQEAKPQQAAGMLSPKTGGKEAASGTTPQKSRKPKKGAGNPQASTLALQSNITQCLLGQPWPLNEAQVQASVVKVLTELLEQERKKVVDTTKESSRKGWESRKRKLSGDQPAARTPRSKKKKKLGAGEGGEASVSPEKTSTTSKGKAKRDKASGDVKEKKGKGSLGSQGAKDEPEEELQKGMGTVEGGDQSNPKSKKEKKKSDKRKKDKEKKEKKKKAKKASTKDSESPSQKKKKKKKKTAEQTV
UniProt Q9BU02: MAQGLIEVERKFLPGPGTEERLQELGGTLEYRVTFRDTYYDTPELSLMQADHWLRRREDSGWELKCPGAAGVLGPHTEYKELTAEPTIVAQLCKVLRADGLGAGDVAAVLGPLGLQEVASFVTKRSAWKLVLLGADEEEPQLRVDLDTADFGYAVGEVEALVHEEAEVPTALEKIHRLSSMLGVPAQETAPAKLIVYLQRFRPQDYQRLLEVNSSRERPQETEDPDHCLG
UniProt Q6YHU6: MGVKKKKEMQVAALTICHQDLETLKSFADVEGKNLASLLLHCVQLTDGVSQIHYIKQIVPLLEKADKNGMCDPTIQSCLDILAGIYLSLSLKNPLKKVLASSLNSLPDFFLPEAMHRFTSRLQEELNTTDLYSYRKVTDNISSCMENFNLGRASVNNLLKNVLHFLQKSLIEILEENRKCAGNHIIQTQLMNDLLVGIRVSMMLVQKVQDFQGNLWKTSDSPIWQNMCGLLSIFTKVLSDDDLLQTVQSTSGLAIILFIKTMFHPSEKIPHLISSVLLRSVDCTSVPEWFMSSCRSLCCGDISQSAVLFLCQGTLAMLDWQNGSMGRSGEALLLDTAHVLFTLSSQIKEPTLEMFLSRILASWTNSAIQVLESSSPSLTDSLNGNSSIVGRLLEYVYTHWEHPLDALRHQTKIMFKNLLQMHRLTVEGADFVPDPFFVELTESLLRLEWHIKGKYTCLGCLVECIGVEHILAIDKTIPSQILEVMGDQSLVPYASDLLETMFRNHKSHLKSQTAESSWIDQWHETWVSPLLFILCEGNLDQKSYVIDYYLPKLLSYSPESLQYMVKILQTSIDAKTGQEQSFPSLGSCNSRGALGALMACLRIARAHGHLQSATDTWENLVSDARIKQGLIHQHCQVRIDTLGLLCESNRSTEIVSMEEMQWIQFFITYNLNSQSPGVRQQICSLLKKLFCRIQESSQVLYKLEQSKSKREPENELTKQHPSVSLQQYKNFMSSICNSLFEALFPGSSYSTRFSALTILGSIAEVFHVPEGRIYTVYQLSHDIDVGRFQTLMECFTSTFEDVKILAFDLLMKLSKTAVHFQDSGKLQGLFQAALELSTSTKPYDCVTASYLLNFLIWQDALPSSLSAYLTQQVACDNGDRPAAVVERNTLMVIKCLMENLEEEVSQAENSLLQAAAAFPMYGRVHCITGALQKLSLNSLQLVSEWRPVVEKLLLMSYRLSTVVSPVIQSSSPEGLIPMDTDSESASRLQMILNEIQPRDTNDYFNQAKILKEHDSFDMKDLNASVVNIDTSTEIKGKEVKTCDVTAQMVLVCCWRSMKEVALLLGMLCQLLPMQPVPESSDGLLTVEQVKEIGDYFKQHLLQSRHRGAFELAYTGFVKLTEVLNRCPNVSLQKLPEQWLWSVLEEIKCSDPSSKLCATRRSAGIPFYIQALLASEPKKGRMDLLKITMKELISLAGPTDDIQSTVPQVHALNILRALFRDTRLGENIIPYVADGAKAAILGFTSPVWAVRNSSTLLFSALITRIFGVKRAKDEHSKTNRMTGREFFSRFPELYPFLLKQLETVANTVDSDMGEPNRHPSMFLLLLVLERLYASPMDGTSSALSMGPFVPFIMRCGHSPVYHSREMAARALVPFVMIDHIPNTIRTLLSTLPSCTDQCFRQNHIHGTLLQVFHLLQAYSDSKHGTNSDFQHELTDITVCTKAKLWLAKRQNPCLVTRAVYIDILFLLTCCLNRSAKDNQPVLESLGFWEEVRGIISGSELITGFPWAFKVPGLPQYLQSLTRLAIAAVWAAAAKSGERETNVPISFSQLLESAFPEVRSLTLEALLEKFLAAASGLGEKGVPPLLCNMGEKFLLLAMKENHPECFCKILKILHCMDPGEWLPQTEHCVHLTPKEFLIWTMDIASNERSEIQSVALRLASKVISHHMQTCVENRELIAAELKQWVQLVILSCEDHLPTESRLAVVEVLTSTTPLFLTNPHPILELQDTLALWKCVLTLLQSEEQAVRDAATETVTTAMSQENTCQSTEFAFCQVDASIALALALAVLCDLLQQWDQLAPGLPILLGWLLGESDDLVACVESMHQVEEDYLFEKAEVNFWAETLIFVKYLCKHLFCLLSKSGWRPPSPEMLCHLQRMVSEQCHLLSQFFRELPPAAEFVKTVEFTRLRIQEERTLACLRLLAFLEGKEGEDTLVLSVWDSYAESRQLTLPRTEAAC
UniProt Q5VWP2: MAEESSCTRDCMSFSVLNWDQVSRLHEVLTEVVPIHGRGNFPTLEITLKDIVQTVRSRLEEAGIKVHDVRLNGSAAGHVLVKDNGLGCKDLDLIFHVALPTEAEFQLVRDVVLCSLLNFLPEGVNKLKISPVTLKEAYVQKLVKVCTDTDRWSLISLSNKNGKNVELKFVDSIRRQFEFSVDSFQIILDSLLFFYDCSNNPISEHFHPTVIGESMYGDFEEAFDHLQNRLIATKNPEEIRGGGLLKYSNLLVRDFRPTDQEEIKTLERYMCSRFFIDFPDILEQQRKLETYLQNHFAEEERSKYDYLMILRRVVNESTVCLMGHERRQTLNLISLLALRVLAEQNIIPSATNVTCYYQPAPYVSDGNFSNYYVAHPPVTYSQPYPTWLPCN
UniProt Q9Y5J6: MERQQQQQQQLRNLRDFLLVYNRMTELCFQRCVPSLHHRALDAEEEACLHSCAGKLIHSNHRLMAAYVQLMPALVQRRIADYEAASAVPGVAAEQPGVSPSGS
UniProt Q9H5Q4: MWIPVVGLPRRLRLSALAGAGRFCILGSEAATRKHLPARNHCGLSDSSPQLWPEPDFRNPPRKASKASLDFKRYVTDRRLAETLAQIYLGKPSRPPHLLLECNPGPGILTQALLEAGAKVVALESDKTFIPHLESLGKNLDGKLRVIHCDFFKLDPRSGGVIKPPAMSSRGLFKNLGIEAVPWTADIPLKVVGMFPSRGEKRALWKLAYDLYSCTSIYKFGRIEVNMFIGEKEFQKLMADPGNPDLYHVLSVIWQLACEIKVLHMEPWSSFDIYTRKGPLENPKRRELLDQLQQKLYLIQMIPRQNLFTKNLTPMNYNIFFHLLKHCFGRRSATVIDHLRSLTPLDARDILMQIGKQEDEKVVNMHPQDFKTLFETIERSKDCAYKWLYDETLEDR
UniProt Q8WUH2: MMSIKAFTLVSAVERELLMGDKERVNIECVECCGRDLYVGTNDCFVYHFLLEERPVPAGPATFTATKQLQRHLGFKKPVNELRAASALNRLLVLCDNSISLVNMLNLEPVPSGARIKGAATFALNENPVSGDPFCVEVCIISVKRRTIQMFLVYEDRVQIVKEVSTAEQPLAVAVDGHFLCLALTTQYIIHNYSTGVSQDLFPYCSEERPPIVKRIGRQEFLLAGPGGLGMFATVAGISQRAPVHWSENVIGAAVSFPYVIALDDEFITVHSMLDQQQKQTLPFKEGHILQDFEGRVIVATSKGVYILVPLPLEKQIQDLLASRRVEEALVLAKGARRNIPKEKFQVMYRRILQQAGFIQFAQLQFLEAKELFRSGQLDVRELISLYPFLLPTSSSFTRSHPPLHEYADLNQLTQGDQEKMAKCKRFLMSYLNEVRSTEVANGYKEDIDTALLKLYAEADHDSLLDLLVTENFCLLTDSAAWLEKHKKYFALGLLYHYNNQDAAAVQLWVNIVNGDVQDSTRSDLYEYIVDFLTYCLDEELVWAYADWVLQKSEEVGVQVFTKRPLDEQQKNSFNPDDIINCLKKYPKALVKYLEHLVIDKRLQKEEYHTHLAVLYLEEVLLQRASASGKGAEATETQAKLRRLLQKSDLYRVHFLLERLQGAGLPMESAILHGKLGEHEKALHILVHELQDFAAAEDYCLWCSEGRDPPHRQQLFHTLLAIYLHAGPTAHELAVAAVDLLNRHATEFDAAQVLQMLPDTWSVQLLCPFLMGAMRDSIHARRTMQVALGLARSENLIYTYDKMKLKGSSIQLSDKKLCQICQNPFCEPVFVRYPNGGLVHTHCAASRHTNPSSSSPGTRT
UniProt Q9Y6I9: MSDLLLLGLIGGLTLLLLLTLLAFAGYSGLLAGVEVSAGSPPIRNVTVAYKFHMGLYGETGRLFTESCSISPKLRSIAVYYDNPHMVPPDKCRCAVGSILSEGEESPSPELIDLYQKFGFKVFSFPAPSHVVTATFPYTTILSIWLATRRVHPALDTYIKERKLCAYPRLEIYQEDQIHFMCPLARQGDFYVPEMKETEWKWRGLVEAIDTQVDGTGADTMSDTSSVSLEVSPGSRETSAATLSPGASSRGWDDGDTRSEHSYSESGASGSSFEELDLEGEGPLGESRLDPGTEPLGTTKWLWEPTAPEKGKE
UniProt Q9Y5L4: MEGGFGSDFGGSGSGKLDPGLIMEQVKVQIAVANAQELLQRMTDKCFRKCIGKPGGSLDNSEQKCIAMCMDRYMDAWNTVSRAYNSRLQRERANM
UniProt Q8TC07: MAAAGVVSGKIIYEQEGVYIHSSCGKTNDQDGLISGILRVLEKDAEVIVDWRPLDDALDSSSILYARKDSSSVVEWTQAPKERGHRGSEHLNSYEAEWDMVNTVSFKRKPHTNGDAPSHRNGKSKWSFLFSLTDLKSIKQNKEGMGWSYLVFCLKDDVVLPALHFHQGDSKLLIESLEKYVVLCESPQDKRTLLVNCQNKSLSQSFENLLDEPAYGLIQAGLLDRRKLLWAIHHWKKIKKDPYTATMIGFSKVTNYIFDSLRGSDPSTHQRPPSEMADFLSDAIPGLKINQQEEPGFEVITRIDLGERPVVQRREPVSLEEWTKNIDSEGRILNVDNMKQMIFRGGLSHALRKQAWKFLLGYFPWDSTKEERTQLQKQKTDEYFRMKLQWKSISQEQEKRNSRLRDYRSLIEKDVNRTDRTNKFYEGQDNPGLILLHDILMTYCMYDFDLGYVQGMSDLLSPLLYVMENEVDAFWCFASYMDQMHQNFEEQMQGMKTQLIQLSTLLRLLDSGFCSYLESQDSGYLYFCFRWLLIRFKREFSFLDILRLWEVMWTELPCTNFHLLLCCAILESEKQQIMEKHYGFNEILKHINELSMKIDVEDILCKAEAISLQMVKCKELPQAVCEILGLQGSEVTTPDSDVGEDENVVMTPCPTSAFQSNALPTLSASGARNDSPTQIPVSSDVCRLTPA

[2] = compound: CN1CCN(c2nc(C3=C(c4c[nH]c5ccccc45)C(=O)NC3=O)c3ccccc3n2)CC1 [sotrastaurin]
Outline: as §1

[3] = compound: CN1CCc2c(c3ccccc3n2Cc2ccc(C(=O)NO)cc2)C1 [Tubastatin A]
Outline: as §1

[4] = compound: CNC(=O)C1=CC=CC=C1NC2=NC(=NC=C2Cl)NC3=C(C=C(C=C3)N4CCOCC4)OC
Outline: as §1

[5] = compound: CNC(=O)c1ccc(Nc2ncc(C(F)(F)F)c(NCc3nccnc3N(C)S(C)(=O)=O)n2)cc1 [defactinib]
Outline: as §1

[6] = compound: CNCc1ccc(-c2[nH]c3cc(F)cc4c3c2CCNC4=O)cc1 [rucaparib]
Outline: as §1

[7] = compound: CNc1nc(-c2ccc3c(N)n[nH]c3c2)cc(N2C[C@@H](C(=O)NC3CCCCC3)CC[C@H]2C)n1
Outline: as §1

[8] = compound: COC(=O)N[C@@H](C)CNc1nccc(-c2cn(C(C)C)nc2-c2cc(Cl)cc(NS(C)(=O)=O)c2F)n1 [encorafenib]
Outline: as §1

[9] = compound: COC(=O)[C@H](CCSC)NC(=O)C1=C(C=C(C=C1)NC[C@H](CS)N)C2=CC=CC=C2
Outline: as §1

[10] = compound: CN1CC[C@H](c2c(O)cc(O)c3c(=O)cc(-c4ccccc4Cl)oc23)[C@H](O)C1 [alvocidib]
Outline: as §1

Measured: log2 fold change

TIMM10 (UniProt P62072)
inactive: [1] -0.058 | [2] 0.018 | [3] -0.027 | [4] -0.015 | [5] -0.073 | [6] -0.062 | [7] 0.039 | [8] -0.013 | [9] 0.002

TELO2 (UniProt Q9Y4R8)
inactive: [1] -0.05 | [2] -0.211 | [3] -0.004 | [4] 0.03 | [5] -0.019 | [6] 0.2 | [7] 0.145 | [8] 0.049 | [9] -0.057

TCOF1 isoform 4 (UniProt Q13428)
inactive: [1] 0.016 | [2] -0.064 | [3] 0.013 | [4] -0.006 | [5] -0.033 | [6] 0.02 | [7] -0.038 | [8] 0.002 | [9] 0.026

THTPA (UniProt Q9BU02)
inactive: [1] 0.065 | [10] -0.083 | [3] 0.156 | [4] 0.009 | [5] -0.017 | [6] -0.166 | [7] -0.158 | [8] 0.146 | [9] 0.054

THADA (UniProt Q6YHU6)
inactive: [1] 0 | [2] -0.104 | [3] 0.073 | [4] -0.036 | [5] -0.079 | [6] -0.017 | [7] 0.047 | [8] 0.09 | [9] -0.014

TIMM29 (UniProt Q9BSF4)
inactive: [1] 0.054 | [2] 0.051 | [3] 0.003 | [4] -0.03 | [5] 0.1 | [6] -0.008 | [7] 0.002 | [8] -0.098 | [9] 0.13

TK1 (UniProt K7ERV3)
inactive: [1] 0.037 | [2] 0.011 | [3] -0.013 | [5] 0 | [7] -0.058 | [9] -0.003

TCERG1 (UniProt O14776)
inactive: [1] -0.051 | [2] -0.086 | [3] 0.11 | [4] -0.011 | [5] -0.288 | [6] -0.003 | [7] 0.08 | [8] 0.063 | [9] -0.105

TIAL1 isoform 2 (UniProt Q01085)
inactive: [1] 0.015 | [2] 0.025 | [3] -0.052 | [4] -0.019 | [5] 0.077 | [6] 0.066 | [7] -0.042 | [8] -0.034 | [9] -0.014

TBC1D5 isoform 2 (UniProt Q92609)
inactive: [1] -0.033 | [2] -0.169 | [3] -0.036 | [4] -0.013 | [5] -0.088 | [6] 0.015 | [7] -0.159 | [8] 0.119 | [9] -0.055

TK1 (UniProt P04183)
inactive: [1] 0.067 | [2] 0.036 | [3] 0.034 | [4] -0.013 | [5] -0.021 | [6] -0.015 | [7] -0.003 | [8] -0.005 | [9] 0.024

TFRC (UniProt P02786)
inactive: [1] 0.008 | [2] 0.005 | [3] -0.028 | [4] 0.029 | [5] -0.03 | [6] -0.003 | [7] -0.056 | [8] 0.019 | [9] -0.004

TIMM21 (UniProt Q9BVV7)
inactive: [1] 0 | [2] -0.001 | [3] -0.048 | [4] -0.025 | [5] -0.007 | [6] -0.04 | [7] -0.016 | [8] 0.063 | [9] 0.051

TBC1D2B (UniProt Q9UPU7)
inactive: [1] -0.275 | [2] 0.032 | [6] -0.016 | [7] -0.126 | [8] 0.02

TBRG4 (UniProt Q969Z0)
inactive: [1] -0.093 | [2] -0.431 | [3] 0.044 | [4] -0.177 | [5] -0.25 | [6] 0.008 | [7] -0.144 | [8] 0.071 | [9] -0.062

THYN1 (UniProt Q9P016)
inactive: [1] -0.062 | [2] -0.022 | [3] -0.006 | [4] 0.079 | [5] -0.002 | [6] 0.029 | [7] 0.072 | [8] 0 | [9] -0.029

TBK1 (UniProt Q9UHD2)
inactive: [1] -0.026 | [2] -0.063 | [3] -0.014 | [5] 0.079 | [6] 0.106 | [7] -0.013 | [8] 0.049 | [9] 0.001
active: [4] 0.536

TENT5C (UniProt Q5VWP2)
inactive: [1] -0.127 | [2] 0.035 | [3] 0.004 | [4] -0.133 | [5] 0.071 | [6] 0.171 | [7] -0.071 | [8] 0.094 | [9] -0.011

TIPRL (UniProt O75663)
inactive: [1] -0.028 | [2] -0.056 | [3] 0 | [4] 0.009 | [5] -0.049 | [6] 0.013 | [7] -0.001 | [8] 0.035 | [9] -0.014

TIMM10B (UniProt Q9Y5J6)
active: [4] 0.484
inactive: [1] -0.046 | [2] 0.074 | [3] 0.109 | [5] -0.074 | [6] 0.017 | [7] -0.106 | [8] -0.022 | [9] -0.117

TFB2M (UniProt Q9H5Q4)
inactive: [1] -0.029 | [2] -0.031 | [3] -0.012 | [4] 0.02 | [5] -0.06 | [6] -0.013 | [7] -0.054 | [8] -0.002 | [9] -0.001

TBCD (UniProt Q9BTW9)
inactive: [1] 0.003 | [2] -0.056 | [3] 0.05 | [4] -0.016 | [5] -0.056 | [6] 0 | [7] -0.031 | [8] 0.018 | [9] -0.007

TBC1D23 (UniProt Q9NUY8)
inactive: [1] -0.023 | [2] -0.073 | [3] 0.043 | [4] -0.027 | [5] -0.109 | [6] -0.038 | [7] -0.074 | [8] 0.079 | [9] -0.047

TGFBRAP1 (UniProt Q8WUH2)
inactive: [1] -0.124 | [2] 0.048 | [3] 0.134 | [4] 0.047 | [5] -0.061 | [6] 0.097 | [7] -0.051 | [8] 0.076 | [9] -0.109

TFAM (UniProt Q00059)
inactive: [1] -0.017 | [2] 0.052 | [3] 0.052 | [4] -0.008 | [5] 0.107 | [6] 0.042 | [7] -0.01 | [8] 0.039 | [9] 0.047

TEX264 (UniProt Q9Y6I9)
inactive: [1] -0.041 | [2] -0.027 | [3] -0.077 | [4] 0.13 | [5] 0.112 | [6] 0.407 | [8] -0.039 | [9] 0.071
active: [7] 0.629

TIMM13 (UniProt Q9Y5L4)
inactive: [1] 0.065 | [2] -0.007 | [3] -0.007 | [4] 0.007 | [5] -0.038 | [6] -0.028 | [7] 0.043 | [8] 0.044 | [9] 0

TBC1D15 isoform 3 (UniProt Q8TC07)
inactive: [1] -0.01 | [2] -0.117 | [3] -0.011 | [4] -0.014 | [5] -0.09 | [6] 0.059 | [7] -0.012 | [8] 0.068 | [9] -0.003

TCIRG1 (UniProt Q13488)
inactive: [1] -0.348 | [10] 0.144 | [3] 0.135 | [4] -0.082 | [6] 0.283 | [7] 0.152 | [8] 0.267

TCF4 isoform 3 (UniProt P15884)
inactive: [1] 0.116 | [10] -0.142 | [3] 0.066 | [7] 0.057

Reference: the supplement of paper PMC10849652
